Not every detail of the peptide structures is certain; ends, links or a residue may be inferred. Where no end group is shown, it is not given here.
Tested on: MB peptide
Format: physicochemical
Settings: for switch properties: monomer below the switching pH value when reversed

## MKVTSEEKEQLSTAIDRMNEGLEAFIQLYNES [replacement of D23 in E]
  pH switch value: 5.5-6.0

## MKVTSKKKEQLSTAIDRMNEGLKAFIQLYNKS
  switch properties: reverses the switch properties

## MKVTSRRKEQLSTAIDRMNEGLRAFIQLYNRS
  pH switch value: > 11
  switch properties: reverses the switch properties

Reference: patent EP2423217A1, “Peptide and protein affinity tag from mistic protein” (Forschungsverbund Berlin E.V., priority 2010, dated 2012)
